Experimental data as given in the supplement of paper PMC3334620.
Whole data set: some 33,000 sequences, median “E-score (-0.5 to 0.5)” near -0.0014, cut for the highest 2% near 0.25. This is one part of the list.

Biological target: T1, Cad1 (UniProt P24813)
T1 sequence: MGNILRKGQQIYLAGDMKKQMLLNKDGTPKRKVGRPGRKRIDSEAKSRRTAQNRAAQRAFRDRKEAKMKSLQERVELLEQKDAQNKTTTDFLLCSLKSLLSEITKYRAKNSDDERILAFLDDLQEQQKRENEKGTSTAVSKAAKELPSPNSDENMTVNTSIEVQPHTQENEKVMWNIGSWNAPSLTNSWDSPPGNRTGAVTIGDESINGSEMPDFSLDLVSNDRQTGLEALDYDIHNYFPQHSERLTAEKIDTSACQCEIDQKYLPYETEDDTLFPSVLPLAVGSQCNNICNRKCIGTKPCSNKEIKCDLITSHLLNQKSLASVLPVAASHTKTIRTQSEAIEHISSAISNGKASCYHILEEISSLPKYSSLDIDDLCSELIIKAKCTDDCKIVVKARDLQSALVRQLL
Assay: PBM E-score (8-mer binding enrichment) (E-score (-0.5 to 0.5)); higher = stronger / more preferred TF binding
Conditions: protein concentration: 100 nM; construct: GST-full length
In short: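 Masliner-normalised scans of fluorescent anti-GST signal were the basis for scoring. That signal came from GST-tagged yeast transcription factors applied at about 100-200 nM to double-stranded universal all-10-mer Agilent arrays on fresh or once-stripped slides. Each ungapped eight-base word, pooled with its reverse complement, received an E-score from the Universal PBM Analysis Suite.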

Going from ATGGCTCG to CAGCATGC, the “PBM E-score” value rises from 0.0346 to 0.109.

First: GAAGCCAA
Second: AGAACTAC
The “PBM E-score” value of the first is lower: -0.183 for the first, 0.0514 for the second.

First: CACCGCTG
Second: GAATGCAC
The “PBM E-score” value of the first is lower: -0.216 for the first, 0.0937 for the second.

Going from ACCCGCTC to ATGGATCG, the “PBM E-score” value rises from -0.392 to -0.032.

Going from GCTGCTCA to CACAAGAG, the “PBM E-score” value rises from 0.0295 to 0.0461.

Compared with CGCAAAGA, ATTAATGC is higher in “PBM E-score” value: 0.0385 for the first, 0.167 for the second.

First: GCGGGGTA
Second: AGGATCAT
The “PBM E-score” value of the first is higher: -0.0356 for the first, -0.0896 for the second.

Going from AATCGCCC to AGCCCGGG, the “PBM E-score” value falls from -0.17 to -0.199.

First: AACTCGTG
Second: AAACTGTT
The “PBM E-score” value of the first is lower: 0.0424 for the first, 0.11 for the second.

Going from CTGGACAC to AACATTCT, the “PBM E-score” value rises from -0.109 to 0.122.

Compared with CAGAAGAA, AATCCAGA is higher in “PBM E-score” value: -0.09 for the first, 0.0334 for the second.

Going from ATGCGGCG to GTCCTGAA, the “PBM E-score” value falls from 0.021 to -0.0863.

First: CTATTCCA
Second: TCGGACGA
The “PBM E-score” value of the first is lower: -0.0216 for the first, 0.15 for the second.

First: ACTAAAAT
Second: AGCAACTG
The “PBM E-score” value of the first is higher: 0.255 for the first, 0.0384 for the second.

Compared with CGGTCATA, AAGCACGT is higher in “PBM E-score” value: 0.0524 for the first, 0.188 for the second.

First: TAGCAAGA
Second: ATTTGGAC
The “PBM E-score” value of the first is lower: 0.0627 for the first, 0.181 for the second.

First: GCTACTAC
Second: CCGCGACA
The “PBM E-score” value of the first is higher: 0.212 for the first, 0.197 for the second.

Compared with ATTACCCC, GCAATCAA is higher in “PBM E-score” value: -0.00399 for the first, 0.148 for the second.

Going from GGTGAGGA to TACAATGA, the “PBM E-score” value rises from -0.0557 to -0.0149.

Going from CTAAATAA to GACTTTGC, the “PBM E-score” value falls from 0.103 to 0.0688.

Going from GACGGATC to AATACGTG, the “PBM E-score” value falls from 0.151 to 0.0629.

First: AGTATCTC
Second: AAAACATA
The “PBM E-score” value of the first is higher: 0.178 for the first, 0.0652 for the second.

First: GCTTTAAC
Second: ATAAATTG
The “PBM E-score” value of the first is lower: 0.0263 for the first, 0.253 for the second.

Compared with ATTGATTG, AAAACGTA is lower in “PBM E-score” value: 0.133 for the first, -0.104 for the second.

Compared with CGTTCACC, CCATTCCC is lower in “PBM E-score” value: 0.00274 for the first, -0.171 for the second.

First: CGTGAACG
Second: CTAGGATA
The “PBM E-score” value of the first is higher: -0.074 for the first, -0.131 for the second.

Going from ACGCTATG to GGACCCAA, the “PBM E-score” value falls from -0.00184 to -0.0488.

Going from GCTATTCA to TAACCGTA, the “PBM E-score” value falls from -0.0289 to -0.0512.

Compared with AGTCCGGG, CTGCCTAC is higher in “PBM E-score” value: -0.133 for the first, 0.0761 for the second.

Compared with CGTCGCCA, ATCCAGGG is lower in “PBM E-score” value: 0.156 for the first, -0.173 for the second.

Compared with CGGGTGAA, GGCCGGAC is lower in “PBM E-score” value: -0.0261 for the first, -0.143 for the second.

Compared with GCCAGCTA, GAGAGAAA is higher in “PBM E-score” value: -0.0513 for the first, 0.14 for the second.

Compared with CCCGCGCG, TATAACCA is lower in “PBM E-score” value: 0.298 for the first, 0.0891 for the second.

Going from CTAAAGTC to CCTGGAGC, the “PBM E-score” value rises from -0.0975 to -0.0969.

Going from ACTATTAC to CATAGGCC, the “PBM E-score” value falls from 0.149 to -0.0621.

Going from CTACATAA to GTTGCAAC, the “PBM E-score” value rises from -0.0789 to 0.0901.

Compared with ACGGCCGG, AATCTTGC is higher in “PBM E-score” value: -0.0115 for the first, 0.176 for the second.

Compared with TAAGCGAA, ACATTTGA is lower in “PBM E-score” value: 0.148 for the first, 0.0757 for the second.

Compared with AAGAAACC, TGACATCA is higher in “PBM E-score” value: -0.053 for the first, 0.186 for the second.

Going from ACACGTTC to ACCATCGA, the “PBM E-score” value falls from 0.129 to 0.104.

Going from GTCAGCAA to AGCCATTA, the “PBM E-score” value falls from 0.295 to 0.0718.

Going from AATGCCGG to TAATTAGA, the “PBM E-score” value rises from 0.0256 to 0.219.

Going from GCGATCAC to AAAAATAT, the “PBM E-score” value rises from 0.0333 to 0.205.

First: ACTCGCCC
Second: GGCTCAAA
The “PBM E-score” value of the first is lower: -0.193 for the first, 0.0219 for the second.

First: CCAACCTC
Second: AGACCAAC
The “PBM E-score” value of the first is higher: 0.00899 for the first, -0.0795 for the second.

Going from CAAGGATG to AAGAGCTA, the “PBM E-score” value rises from -0.0792 to -0.0042.

Going from CTTGGCGA to ATCCGATA, the “PBM E-score” value rises from -0.169 to 0.136.

First: GGGTATCA
Second: CACGACAA
The “PBM E-score” value of the first is lower: -0.00298 for the first, 0.105 for the second.

First: CTCCCCTC
Second: AAGTACAA
The “PBM E-score” value of the first is lower: -0.238 for the first, -0.0585 for the second.

Compared with AGAGGACT, AGGTTTAC is higher in “PBM E-score” value: -0.357 for the first, -0.138 for the second.

Compared with GACGTGTA, AACACGAA is higher in “PBM E-score” value: -0.0301 for the first, 0.217 for the second.

Going from CTCCCGGA to AAGATGCG, the “PBM E-score” value rises from -0.183 to 0.0209.

Going from CTGAGAAA to CTCTTTTC, the “PBM E-score” value falls from -0.0304 to -0.0429.

Going from CTATGAAC to GAAGGCTA, the “PBM E-score” value falls from 0.0413 to -0.0959.

Going from AGTAGTCA to CGGATCCA, the “PBM E-score” value falls from 0.0524 to 0.0492.

First: GCTGAAAA
Second: AACACCAC
The “PBM E-score” value of the first is higher: 0.141 for the first, 0.0441 for the second.

Going from AAAGACCC to ATCAGCAA, the “PBM E-score” value rises from -0.125 to 0.122.

First: ATGCTTGA
Second: ACTGGAGA
The “PBM E-score” value of the first is higher: 0.128 for the first, -0.124 for the second.

First: ATCACAAG
Second: TCGATCCA
The “PBM E-score” value of the first is higher: 0.0939 for the first, -0.0414 for the second.

Going from ATGCGCGA to GACATCGA, the “PBM E-score” value falls from 0.0852 to -0.0153.

Going from ATCGAGGA to CGCACCGC, the “PBM E-score” value falls from 0.135 to -0.0793.

First: ATGTATTA
Second: GGCCCGAC
The “PBM E-score” value of the first is higher: 0.121 for the first, 0.0437 for the second.

Going from AACTCTTA to TACTCGCA, the “PBM E-score” value rises from 0.0953 to 0.216.

First: AAGCTACC
Second: ACACTCAA
The “PBM E-score” value of the first is lower: 0.0175 for the first, 0.124 for the second.

Going from GTTACGGA to AACGGTCC, the “PBM E-score” value rises from -0.0631 to -0.0507.

Compared with AAACAAGC, ACCTGCCC is lower in “PBM E-score” value: 0.0118 for the first, -0.064 for the second.

Going from AATGCCAA to CGCTCACC, the “PBM E-score” value falls from 0.027 to -0.146.

Going from AGCACCTG to GCTATACC, the “PBM E-score” value rises from -0.104 to 0.0606.

First: AGCTTACC
Second: CCATCATA
The “PBM E-score” value of the first is higher: -0.0175 for the first, -0.27 for the second.

Compared with GAGGTGAC, ACGTCACG is lower in “PBM E-score” value: 0.0748 for the first, 0.0291 for the second.

First: CGGAATGC
Second: AATGGCCC
The “PBM E-score” value of the first is higher: 0.0138 for the first, -0.158 for the second.

First: GAGTGTCC
Second: AATAACCT
The “PBM E-score” value of the first is higher: 0.0576 for the first, -0.114 for the second.

Compared with ACATTCAA, AGGCATAC is higher in “PBM E-score” value: 0.0432 for the first, 0.0831 for the second.

First: ACTCAGAA
Second: AGGTTAAT
The “PBM E-score” value of the first is higher: 0.178 for the first, 0.0288 for the second.

First: AACGAGGG
Second: CTTATCTC
The “PBM E-score” value of the first is lower: -0.185 for the first, 0.063 for the second.

Going from CAGACCTG to AAAGCAGT, the “PBM E-score” value rises from -0.0473 to 0.03.

Going from GAGACAAC to AGGATTAG, the “PBM E-score” value falls from 0.0594 to 0.00136.

Compared with AAGGTGCG, CCGGGACA is higher in “PBM E-score” value: -0.0392 for the first, 0.067 for the second.

First: GCTGTACC
Second: GGTCGTAA
The “PBM E-score” value of the first is lower: 0.0106 for the first, 0.0676 for the second.

First: ACTCTCTG
Second: ATTTGTTC
The “PBM E-score” value of the first is lower: -0.00478 for the first, 0.265 for the second.

Going from CGCACGCC to CGGGTTAG, the “PBM E-score” value falls from -0.106 to -0.179.

First: AATTGAGC
Second: CCAACTCC
The “PBM E-score” value of the first is lower: -0.108 for the first, -0.0401 for the second.

Going from CCCACGAC to TCGGGGAA, the “PBM E-score” value rises from -0.195 to 0.0236.

First: GAGTGAGC
Second: GGGAACAA
The “PBM E-score” value of the first is lower: -0.0112 for the first, 0.0338 for the second.

Compared with CTATTGGC, CGAGGGAA is higher in “PBM E-score” value: -0.279 for the first, -0.126 for the second.

First: AGTCCGCG
Second: AAGGTCAG
The “PBM E-score” value of the first is higher: 0.0892 for the first, -0.105 for the second.
